Source: patent US20190117685A1, “PROCESS FOR THE IDENTIFICATION OF COMPOUNDS FOR TREATING CANCER” (FUNDACIÓN CENTRO NACIONAL DE INVESTIGACIONES ONCOLÓGICAS …, priority 2009, published 2019)
Some of these results come from one statement about several compounds together.

System: B16 melanoma cells
Assay: Subcutaneous B16 melanoma in syngeneic C57BL/6 mice
Type: in vivo, mouse
Conditions: peritumoral injections, 2 ng/kg

**Q.** Which “time to sacrifice after implantation due to excessive tumor growth” value does the source give for polyinosine-polycytidylic acid [pIC] here?
**A.** 15 to 25 days
